From PubChem BioAssay AID1688 (National Center for Advancing Translational Sciences (NCATS), 2009)
The whole screen tested about 220,000 compounds, of which about 2,400 (1.1%) were called active. This list was built around the results that the source calls inconclusive (neither active nor inactive); the mix of calls is not that of the screen. The call rests on the fitted dose curve; in most records, active means well fitted inhibition curve with a large enough effect; inconclusive means small, poorly fitted or top-dose-only effect, or effect the other way; inactive means no such curve, though single readings can be large or run the other way. A potency beside an inconclusive call is a rough fit, not a confirmed value.

Assay: qHTS Multiplex Assay to Identify Dual Action Probes in a Cell Model of Huntington: Aggregate Formation (GFP); further: nearly all actives have a fitted effect of over 60% in size
Settings: PC12 HttQ103-GFP aggregates, Acumen cytometry, 40 h; activity change, negative = inhibition: at 46.1 µM (top of the series) unless noted
Outline: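 Steps: seed 1500 PC12 HTTQ103-GFP cells/well; add tebufenozide, 100 nM final; add compound titration; add ATPLite reagent; quantify GFP aggregates by laser scanning cytometry.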
On the % scale 0 is the no-effect control and ±100 the full control effect; potency means the concentration at half of the fitted maximal effect.

Structure (SMILES) | Potency | activity change, negative = inhibition
CC(C)OC(=O)NC(c1ccccc1)C(Cl)(Cl)Cl (centres undefined) | inconclusive: 0.447 µM [inhibitor, partial curve] | –
Cc1cc(C)nc(SCc2cccc(C(=O)O)c2)n1 | inconclusive: 0.501 µM [inhibitor, full curve, poor fit] | –
CC(C)(C)n1nnnc1C(c1ccc(F)cc1)N(Cc1ccc(F)cc1)Cc1ccco1 (centres undefined) | inconclusive: 35.5 µM [inhibitor, single point] | –
COc1cccc(NC(=O)Nc2cccs2)c1 | inconclusive: 15.8 µM [inhibitor, single point] | –
O=C(Cc1cccs1)N1CCCC(c2nc3c(nnn3Cc3cccc(Cl)c3)c(=O)[nH]2)C1 (centres undefined) | – | inactive: -0.976%
Cc1cccc(Nc2nc(N3CCCC3)nc(N3CCCC3)n2)c1 | inconclusive: 35.5 µM [inhibitor, single point] | –
COc1ccc(C(C(=O)NC2CCCC2)N(C(=O)c2snc(-c3ccc(F)cc3)c2N)c2ccccc2)cc1 (centres undefined) | inconclusive: 0.501 µM [activator, full curve, poor fit] | –
CCOC(=O)C1=C(c2ccccc2)NC(=O)NC1c1ccc(OCC#N)c(OC)c1 (centres undefined) | – | inactive: 9.7%
CCn1c(SCC(=O)NCc2ccccc2)nc2ccccc2c1=O | – | inactive: -2.31%
CSCCC(NS(=O)(=O)c1ccc2c(c1)oc(=O)n2C)C(=O)NCc1cccs1 (centres undefined) | inconclusive: 0.398 µM [inhibitor, partial curve] | –
Cc1noc2ncnc(Sc3ccccc3Cl)c12 | active: 5.01 µM | –
CCN(CC)S(=O)(=O)c1ccc(NC(=O)COc2c(OC)cccc2OC)cc1 | inconclusive: 35.5 µM [inhibitor, single point] | –
Cc1cc(S(=O)(=O)N2CCCC2)ccc1OCC(=O)NCc1ccco1 | inconclusive: 25.1 µM [activator, partial curve] | –
O=P(O)(O)COc1ccccc1P(=O)(c1ccccc1)c1ccccc1 | inconclusive: 11.2 µM [inhibitor, partial curve] | –
CC(C)n1c(NCCc2ccccc2)nc2c1c(=O)n(C)c(=O)n2C | active: 11.2 µM | –
CCC(=O)Nc1ccc(Cl)c(NC(=O)c2ccc(Br)o2)c1 | inconclusive: 0.126 µM [activator, full curve, poor fit] | –
COC(=O)C1=C(C)OC(N)=C(C#N)C1c1ccccc1 (centres undefined) | – | inactive: 11.6%
c1ccc(-c2c(-c3ccccc3)n(Cc3ccco3)c3ncnc(NCCCn4ccnc4)c23)cc1 | inconclusive: 14.1 µM [inhibitor, single point] | –
N#Cc1ccc(OCC(=O)N/N=C/C2CC=CCC2)cc1 (centres undefined) | inconclusive: 2.82 µM [inhibitor, single point] | –
CC/C(=N/OC(=O)c1cccc(C)c1)C(=O)c1cccs1 | – | inactive: 5.32%
COCCn1c(N)c(C(=O)NCC2CCCO2)c2nc3ccccc3nc21 (centres undefined) | inconclusive: 11.2 µM [inhibitor, partial curve] | –
Cc1ccc(-n2c(N)c(C#N)c(-c3ccc(Cl)cc3)c(C#N)c2=O)cc1 | – | inactive: -28.7%

Entries shown so far with nitrogen in an aromatic ring (12):
Structure (SMILES) | Potency | activity change, negative = inhibition
Cc1cc(C)nc(SCc2cccc(C(=O)O)c2)n1 | inconclusive: 0.501 µM [inhibitor, full curve, poor fit] | –
CC(C)(C)n1nnnc1C(c1ccc(F)cc1)N(Cc1ccc(F)cc1)Cc1ccco1 (centres undefined) | inconclusive: 35.5 µM [inhibitor, single point] | –
O=C(Cc1cccs1)N1CCCC(c2nc3c(nnn3Cc3cccc(Cl)c3)c(=O)[nH]2)C1 (centres undefined) | – | inactive: -0.976%
Cc1cccc(Nc2nc(N3CCCC3)nc(N3CCCC3)n2)c1 | inconclusive: 35.5 µM [inhibitor, single point] | –
COc1ccc(C(C(=O)NC2CCCC2)N(C(=O)c2snc(-c3ccc(F)cc3)c2N)c2ccccc2)cc1 (centres undefined) | inconclusive: 0.501 µM [activator, full curve, poor fit] | –
CCn1c(SCC(=O)NCc2ccccc2)nc2ccccc2c1=O | – | inactive: -2.31%
CSCCC(NS(=O)(=O)c1ccc2c(c1)oc(=O)n2C)C(=O)NCc1cccs1 (centres undefined) | inconclusive: 0.398 µM [inhibitor, partial curve] | –
Cc1noc2ncnc(Sc3ccccc3Cl)c12 | active: 5.01 µM | –
CC(C)n1c(NCCc2ccccc2)nc2c1c(=O)n(C)c(=O)n2C | active: 11.2 µM | –
c1ccc(-c2c(-c3ccccc3)n(Cc3ccco3)c3ncnc(NCCCn4ccnc4)c23)cc1 | inconclusive: 14.1 µM [inhibitor, single point] | –
COCCn1c(N)c(C(=O)NCC2CCCO2)c2nc3ccccc3nc21 (centres undefined) | inconclusive: 11.2 µM [inhibitor, partial curve] | –
Cc1ccc(-n2c(N)c(C#N)c(-c3ccc(Cl)cc3)c(C#N)c2=O)cc1 | – | inactive: -28.7%

(list continues)

Structure (SMILES) | Potency | activity change, negative = inhibition
O=C(c1cccc(C(F)(F)F)c1)c1c[nH]c(C(=O)NCCCN2CCOCC2)c1 | – | inactive: -1.03%
O=C(c1ccco1)N1CCN(C(c2cccs2)c2sc3ncnn3c2O)CC1 (centres undefined) | inconclusive: 6.31 µM [activator, partial curve] | –
O=C(N/N=C/c1ccc([N+](=O)[O-])s1)c1ccccc1Br | inconclusive: 15.8 µM [inhibitor, single point] | –
Cc1ncc(CO)c(/C=N/NC(=O)c2ccc(O)cc2)c1O | inconclusive: 1.26 µM [inhibitor, single point] | –
O=C(c1cnccn1)N1CCN(c2ccccc2)CC1 | – | inactive: 9.6%
CCOC(=O)/C=C/S(=O)(=O)c1ccc(NC(C)=O)cc1 | active: 3.98 µM | –
Cc1ccccc1NC(=O)Nc1nnc(Cc2ccc([N+](=O)[O-])cc2)s1 | inconclusive: 28.2 µM [activator, single point] | –
N#Cc1c(NC(=O)c2ccc(N3CCOCC3)c([N+](=O)[O-])c2)sc2c1CCCC2 | active: 5.62 µM | –
NC(=O)C1CCN(c2ccc(C(F)(F)F)cc2[N+](=O)[O-])CC1 | – | inactive: 6.74%
CCOc1cc(OCC)cc(C(=O)Nc2cccnc2)c1 | – | inactive: -9.65%
CCN1CCN(Cc2ccc(NC(=O)c3ccc(C)c(NC(=O)N4CCNC4=O)c3)cc2C(F)(F)F)CC1 | inconclusive: 0.631 µM [inhibitor, single point] | –
CC(C)(C)c1ccc(NC(=O)COc2ccc(-n3ccnc3)cc2)cc1 | inconclusive: 14.1 µM [inhibitor, single point] | –
CC(C)(C)C(=O)Nc1nc2c(s1)COc1ccccc1-2 | inconclusive: 35.5 µM [inhibitor, single point] | –
COc1cc(OC)cc(C(=O)NCc2ccc3[nH]c(C)cc3c2)c1 | inconclusive: 3.16 µM [activator, single point] | –
CN(C)c1ccc(C(=C2C=CC(=[N+](C)C)C=C2)c2ccccc2)cc1 | inconclusive: 6.31 µM [inhibitor, partial curve, poor fit] | –
CC(=O)OCC(=O)N1N=C(c2ccc3ccccc3c2)CC1c1ccccc1 (centres undefined) | inconclusive: 22.4 µM [inhibitor, single point] | –
O=S(=O)(c1ccc2ccccc2c1)N1CCN(C(=S)Nc2ccc(F)c(Cl)c2)CC1 | inconclusive: 35.5 µM [inhibitor, single point] | –
Cc1ccc(NC(=O)c2ccc(F)c(S(=O)(=O)N3CCOCC3)c2)cc1F | inconclusive: 11.2 µM [inhibitor, single point] | –
COc1ccc(N/C=C(/C(C)=O)c2ccccc2)cc1 | inconclusive: 35.5 µM [inhibitor, partial curve] | –
O=C(CNC1=NCCC1)c1ccc(Cl)cc1 | inconclusive: 10 µM [inhibitor, partial curve] | –
O=c1[nH]c(CSc2nnc(COc3ccccc3)n2-c2ccccc2)nc2ccccc12 | inconclusive: 8.91 µM [activator, partial curve] | –
COC(=O)c1c(NC(=O)c2ccccc2[N+](=O)[O-])sc2c1CC(C)(C)NC2(C)C | inconclusive: 11.2 µM [activator, partial curve] | –
